Experimental data as given in patent US7179446B2 (Bristol-Myers Squibb Pharma Company, priority 2000, dated 2007).

Experiment: solid-phase peptide synthesis
Details: TFA salt; for crude HPLC purity / final HPLC purity: Analytical HPLC (Method 1A / 1B)

Substance: cyclo{Arg-Gly-Asp-D-Tyr(3-(3-(N-(3-(2-(2-(3-(amino)propoxy)ethoxy)ethoxy)propyl)carbamoyl)-propanamido)propyl)-Val}
- crude HPLC purity (late stage modification step): Purity=73%
- step yield (late stage modification step): 98%

Substance: cyclo{D-Lys-D-Phe-D-Asp-Gly-Arg}
- final HPLC purity (late stage modification step): Purity=93%
- step yield (late stage modification step): ˜53%

Substance: cyclo{Arg-Gly-Asp-Lys([2-[[[5-[carbonyl]-2-pyridinyl]hydrazono]methyl]-benzenesulfonic acid])-D-Val}
- final HPLC purity (conjugation step): Purity=92%
- conjugation yield (conjugation step): 31%

Substance: cyclo{Arg(Tos)-D-Val-D-Tyr(N-Cbz-3-aminopropyl)-D-Asp(OBzl)-Gly}
- isolated yield (whole synthesis): 30%

Substance: [2-[[[5-[carbonyl]-2-pyridinyl]-hydrazono]methyl]-benzenesulfonic acid]-Glu(cyclo{Lys-Arg-Gly-Asp-D-Phe})-cyclo{Lys-Arg-Gly-Asp-D-Phe}
- final HPLC purity (conjugation step): Purity=91%
- conjugation yield (conjugation step): 32%

Substance: Glu(cyclo{Lys-Arg-Gly-Asp-D-Phe})-cyclo{Lys-Arg-Gly-Asp-D-Phe} TFA salt
- crude HPLC purity (late stage modification step): Purity=73%
- step yield (late stage modification step): 100%

Substance: [2-[[[5-[carbonyl]-2-pyridinyl]hydrazono]methyl]-benzenesulfonic acid]-Glu(cyclo{Lys-Arg-Gly-Asp-D-Nal})-cyclo{Lys-Arg-Gly-Asp-D-Nal}
- final HPLC purity (conjugation step): Purity=92%

Substance: cyclo{Arg-Gly-Asp-D-Nal-Lys} bis TFA salt
- crude HPLC purity (late stage modification step): Purity=97%
- step yield (late stage modification step): 98%

Substance: Glu(cyclo{Lys-D-Val-Arg-Gly-Asp})-cyclo{Lys-D-Val-Arg-Gly-Asp}
- final HPLC purity (late stage modification step): Purity=93%

Substance: cyclo{Arg-Gly-Asp-D-Tyr(3-(3-(N-(3-(2-(2-(3-((tert-butoxy)-carbonylamino)propoxy)ethoxy)-ethoxy)propyl)carbamoyl)-propanamido)propyl)-Val}
- final HPLC purity (conjugation step): Purity=100%
- conjugation yield (conjugation step): 14%

Substance: Boc-Glu(cyclo{D-Tyr(3-aminopropyl)-Val-Arg-Gly-Asp})-cyclo{D-Tyr(3-aminopropyl)-Val-Arg-Gly-Asp}
- crude HPLC purity (conjugation step): Purity=73%
- conjugation yield (conjugation step): 55%

Substance: Glu(cyclo{Lys-Arg-Gly-Asp-D-Nal})-cyclo{Lys-Arg-Gly-Asp-D-Nal}
- crude HPLC purity (late stage modification step): Purity=62%

Substance: Boc-Glu(cyclo{Lys-Arg-Gly-Asp-D-Nal})-cyclo{Lys-Arg-Gly-Asp-D-Nal}
- crude HPLC purity (conjugation step): (65%)

Substance: Glu(cyclo{D-Tyr(3-aminopropyl)-Val-Arg-Gly-Asp})-cyclo{D-Tyr(3-aminopropyl)-Val-Arg-Gly-Asp}
- crude HPLC purity (late stage modification step): Purity=77%
- step yield (late stage modification step): 76%

Substance: cyclo{Arg-Gly-Asp-Lys-D-Val}
- final HPLC purity (late stage modification step): Purity=92%
- step yield (late stage modification step): 66%

Substance: Cyclo{Arg(Tos)-Gly-Asp(OBzl)-D-Tyr(Bzl)-Lys(Cbz)}
- crude HPLC purity (whole synthesis): Purity=82%

Substance: [2-[[[5-[carbonyl]-2-pyridinyl]hydrazono]methyl]-benzenesulfonic acid]-Phe-Glu(cyclo{Lys-Arg-Gly-Asp-D-Phe})-cyclo{Lys-Arg-Gly-Asp-D-Phe}
- final HPLC purity (conjugation step): Purity=99%
- conjugation yield (conjugation step): 22%

Substance: Cyclo{Arg-Gly-Asp-D-Tyr-Lys}
- final HPLC purity (late stage modification step): Purity=100%
- step yield (late stage modification step): 10%

Substance: cyclo{N-Me-Arg-Gly-Asp-ATA-D-Lys([2-[[[5-[carbonyl]-2-pyridinyl]hydrazono]methyl]-benzenesulfonic acid])}
- conjugation yield (conjugation step): 8.8%

Substance: cyclo{Cit-Gly-Asp-D-Phe-Lys}
- crude HPLC purity (late stage modification step): Purity=97%

Substance: cyclo{Arg-Gly-Asp-D-Nal-Lys([2-[[[5-[carbonyl]-2-pyridinyl]hydrazono]methyl]-benzenesulfonic acid])}
- final HPLC purity (conjugation step): Purity=99%
- conjugation yield (conjugation step): 72%

Substance: Cyclo{Arg(Tos)-Gly-Asp(OBzl)-Lys(Cbz)-D-Val}
- final HPLC purity (whole synthesis): Purity=85%

Substance: cyclo{Cit-Gly-Asp(OtBu)-D-Phe-Lys(Boc)}
- crude HPLC purity (cyclisation step): purity 99%
- cyclisation yield (cyclisation step): 78%

Substance: Glu(cyclo{D-Lys-D-Phe-D-Asp-Gly-Arg})-cyclo{D-Lys-D-Phe-D-Asp-Gly-Arg}
- final HPLC purity (late stage modification step): Purity=93%

Substance: cyclo{D-Phe-D-Lys([2-[[[5-[carbonyl]-2-pyridinyl]hydrazono]methyl]-benzenesulfonic acid])-D-Asp-Gly-Arg}
- final HPLC purity (conjugation step): Purity=89%

Substance: cyclo{D-Phe-D-Lys-D-Asp-Gly-Arg}
- final HPLC purity (late stage modification step): Purity=90%

Substance: cyclo{Arg-Gly-Asp-D-Phe-Lys}2(DTPA)
- final HPLC purity (conjugation step): Purity=93%
- conjugation yield (conjugation step): 21%

Substance: Cyclo{Arg(Tos)-Gly-Asp(OBzl)-D-Phe-Lys(Cbz)}
- crude HPLC purity (whole synthesis): Purity=89%

Substance: cyclo{Cit-Gly-Asp-D-Phe-Lys([2-[[[5-[carbonyl]-2-pyridinyl]hydrazono]methyl]-benzenesulfonic acid])}
- final HPLC purity (conjugation step): Purity=99%
- conjugation yield (conjugation step): 70%

Substance: cyclo{N-Me-Arg-Gly-Asp-ATA-D-Lys}
- step yield (late stage modification step): 100%

Substance: cyclo{Arg-Gly-Asp-D-Tyr((N-[2-[[[5-[carbonyl]-2-pyridinyl]hydrazono]methyl]-benzenesulfonic acid]-18-amino-14-aza-4,7,10-oxy-15-oxo-octadecoyl)-3-aminopropyl)-Val}
- final HPLC purity (conjugation step): Purity=100%
- conjugation yield (conjugation step): 38%

Substance: cyclo{D-Phe-D-Lys(Cbz)-D-Asp(OBzl)-Gly-Arg(Tos)}
- crude HPLC purity (whole synthesis): purity 60%

Substance: cyclo{Arg(Mtr)-Gly-Asp(OtBu)-D-Nal-Lys(Boc)}
- crude HPLC purity (cyclisation step): purity 99%
- cyclisation yield (cyclisation step): 86%

Substance: [2-[[[5-[carbonyl]-2-pyridinyl]hydrazono]methyl]-benzenesulfonic acid]-Glu(cyclo{D-Tyr(3-aminopropyl)-Val-Arg-Gly-Asp})-cyclo{D-Tyr(3-aminopropyl)-Val-Arg-Gly-Asp}
- final HPLC purity (conjugation step): Purity=94%
- conjugation yield (conjugation step): 43%

Substance: cyclo{Arg-Gly-Asp-D-Phe-Lys(DTPA)}
- final HPLC purity (conjugation step): Purity=100%
- conjugation yield (conjugation step): 46%

Substance: cyclo{Arg-Gly-Asp-D-Tyr(N-[2-[[[5-[carbonyl]-2-pyridinyl]hydrazono]methyl]-benzenesulfonic acid]-3-aminopropyl)-Val}
- final HPLC purity (conjugation step): Purity=95%
- conjugation yield (conjugation step): 37%

Substance: Boc-Glu(cyclo{Lys-Arg-Gly-Asp-D-Phe})-cyclo{Lys-Arg-Gly-Asp-D-Phe}
- crude HPLC purity (conjugation step): Purity=73%
- conjugation yield (conjugation step): 44%

Substance: cyclo{Arg-Gly-Asp-D-Phe-Lys([2-[[[5-[carbonyl]-2-pyridinyl]hydrazono]methyl]-benzenesulfonic acid])}
- final HPLC purity (conjugation step): Purity=91%
- conjugation yield (conjugation step): 78%

Substance: cyclo{Arg-D-Val-D-Tyr(3-aminopropyl)-D-Asp-Gly}
- step yield (late stage modification step): 27%

Substance: Cyclo{Arg-Gly-Asp-D-Tyr(3-aminopropyl)-Val}
- final HPLC purity (late stage modification step): Purity=91%
- step yield (late stage modification step): 23%

Substance: Cyclo{Arg(Tos)-Gly-Asp(OBzl)-D-Tyr(N-Cbz-3-aminopropyl)-Val}
- crude HPLC purity (whole synthesis): Purity=75%

Substance: 2-(1,4,7,10-tetraaza-4,7,10-tris(t-butoxycarbonylmethyl)-1-cyclododecyl)acetyl-Glu(cyclo{Lys-Arg-Gly-Asp-D-Phe})-cyclo{Lys-Arg-Gly-Asp-D-Phe}
- final HPLC purity (conjugation step): Purity=99%

Substance: Cyclo{Arg-Gly-Asp-D-Phe-Lys}
- final HPLC purity (late stage modification step): Purity=100%
- step yield (late stage modification step): 71%

Substance: 2-(1,4,7,10-tetraaza-4,7,10-tris(carboxymethyl)-1-cyclododecyl)acetyl-Glu(cyclo{Lys-Arg-Gly-Asp-D-Phe})-cyclo{Lys-Arg-Gly-Asp-D-Phe}
- final HPLC purity (late stage modification step): Purity=99%
- step yield (late stage modification step): 45%

Substance: cyclo{D-Lys([2-[[[5-[carbonyl]-2-pyridinyl]hydrazono]methyl]-benzenesulfonic acid])-D-Phe-D-Asp-Gly-Arg}
- final HPLC purity (conjugation step): Purity=99%
- conjugation yield (conjugation step): 78%

Substance: [2-[[[5-[carbonyl]-2-pyridinyl]hydrazono]methyl]-benzenesulfonic acid]-Glu(cyclo{Lys-D-Val-Arg-Gly-Asp})-cyclo{Lys-D-Val-Arg-Gly-Asp}
- final HPLC purity (conjugation step): Purity=99%

Substance: cyclo{N-Me-Arg(Tos)-Gly-Asp(OBzl)-ATA-D-Lys(Cbz)}
- isolated yield (whole synthesis): 9%

Substance: [2-[[[5-[carbonyl]-2-pyridinyl]hydrazono]methyl]-benzenesulfonic acid]-Glu(cyclo{D-Lys-D-Phe-D-Asp-Gly-Arg})-cyclo{D-Lys-D-Phe-D-Asp-Gly-Arg}
- final HPLC purity (conjugation step): Purity=96%

Substance: Cyclo{Arg-Gly-Asp-D-Tyr(N-DTPA-3-aminopropyl)-Val}
- final HPLC purity (conjugation step): Purity=96%
- conjugation yield (conjugation step): 65%

Substance: Phe-Glu(cyclo{Lys-Arg-Gly-Asp-D-Phe})-cyclo{Lys-Arg-Gly-Asp-D-Phe}
- crude HPLC purity (coupling step): Purity=95%
